Test results taken from PMC4451243.
These are yes or no findings as the source states them, for the method shown. In cells and extracts the contact can be indirect. Some entries that bind do so weakly or less than the wild type. For part of these data: Tags and fused reporters may be left off the sequences shown.

Chains of the proteins cited; added tags and fusions are not shown.
UniProt Q92841: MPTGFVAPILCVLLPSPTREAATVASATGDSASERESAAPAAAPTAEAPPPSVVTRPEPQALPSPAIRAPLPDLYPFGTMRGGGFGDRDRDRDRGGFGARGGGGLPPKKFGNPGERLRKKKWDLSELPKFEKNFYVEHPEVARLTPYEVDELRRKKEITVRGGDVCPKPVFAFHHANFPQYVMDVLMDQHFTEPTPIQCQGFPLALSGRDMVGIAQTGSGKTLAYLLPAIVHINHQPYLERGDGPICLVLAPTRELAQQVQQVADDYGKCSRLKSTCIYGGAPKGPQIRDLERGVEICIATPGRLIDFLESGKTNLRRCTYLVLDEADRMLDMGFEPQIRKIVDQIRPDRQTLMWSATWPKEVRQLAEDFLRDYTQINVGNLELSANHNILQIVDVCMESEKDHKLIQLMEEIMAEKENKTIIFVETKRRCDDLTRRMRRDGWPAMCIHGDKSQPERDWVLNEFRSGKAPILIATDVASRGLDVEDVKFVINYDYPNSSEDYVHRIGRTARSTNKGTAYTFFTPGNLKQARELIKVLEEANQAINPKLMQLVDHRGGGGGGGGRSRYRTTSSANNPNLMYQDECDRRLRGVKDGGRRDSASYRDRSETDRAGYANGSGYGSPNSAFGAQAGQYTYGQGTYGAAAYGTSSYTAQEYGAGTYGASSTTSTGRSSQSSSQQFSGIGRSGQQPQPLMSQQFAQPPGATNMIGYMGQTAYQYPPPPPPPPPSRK
UniProt P17844: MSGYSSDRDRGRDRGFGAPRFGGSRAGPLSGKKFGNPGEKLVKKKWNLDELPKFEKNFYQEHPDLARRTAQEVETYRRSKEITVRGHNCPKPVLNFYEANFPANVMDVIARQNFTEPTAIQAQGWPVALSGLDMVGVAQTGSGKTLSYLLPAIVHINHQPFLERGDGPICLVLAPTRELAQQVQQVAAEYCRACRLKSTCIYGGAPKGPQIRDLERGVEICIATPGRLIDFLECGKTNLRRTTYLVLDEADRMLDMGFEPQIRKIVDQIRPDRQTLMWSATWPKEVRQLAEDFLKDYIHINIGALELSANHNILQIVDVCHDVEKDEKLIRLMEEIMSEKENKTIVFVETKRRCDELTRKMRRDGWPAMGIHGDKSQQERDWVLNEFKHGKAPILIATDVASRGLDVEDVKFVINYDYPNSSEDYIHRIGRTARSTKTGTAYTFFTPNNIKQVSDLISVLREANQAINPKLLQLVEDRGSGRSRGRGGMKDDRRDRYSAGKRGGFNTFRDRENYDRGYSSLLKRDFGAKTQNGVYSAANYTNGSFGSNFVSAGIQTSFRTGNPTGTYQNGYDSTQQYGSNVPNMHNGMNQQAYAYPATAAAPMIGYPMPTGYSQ
UniProt Q13547: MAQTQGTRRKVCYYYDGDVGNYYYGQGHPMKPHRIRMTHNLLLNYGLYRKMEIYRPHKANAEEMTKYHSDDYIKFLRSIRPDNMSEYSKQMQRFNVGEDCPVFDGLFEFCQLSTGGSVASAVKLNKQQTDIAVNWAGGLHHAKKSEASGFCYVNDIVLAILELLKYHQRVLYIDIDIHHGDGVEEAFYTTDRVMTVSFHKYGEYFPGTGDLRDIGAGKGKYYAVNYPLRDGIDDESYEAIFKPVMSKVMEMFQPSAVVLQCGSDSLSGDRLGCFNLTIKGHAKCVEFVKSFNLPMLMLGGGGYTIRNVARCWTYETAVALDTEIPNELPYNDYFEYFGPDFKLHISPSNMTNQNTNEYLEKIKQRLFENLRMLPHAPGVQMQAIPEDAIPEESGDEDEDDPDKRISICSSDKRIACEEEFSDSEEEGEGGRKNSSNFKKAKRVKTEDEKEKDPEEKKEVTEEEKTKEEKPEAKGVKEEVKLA
UniProt P11387: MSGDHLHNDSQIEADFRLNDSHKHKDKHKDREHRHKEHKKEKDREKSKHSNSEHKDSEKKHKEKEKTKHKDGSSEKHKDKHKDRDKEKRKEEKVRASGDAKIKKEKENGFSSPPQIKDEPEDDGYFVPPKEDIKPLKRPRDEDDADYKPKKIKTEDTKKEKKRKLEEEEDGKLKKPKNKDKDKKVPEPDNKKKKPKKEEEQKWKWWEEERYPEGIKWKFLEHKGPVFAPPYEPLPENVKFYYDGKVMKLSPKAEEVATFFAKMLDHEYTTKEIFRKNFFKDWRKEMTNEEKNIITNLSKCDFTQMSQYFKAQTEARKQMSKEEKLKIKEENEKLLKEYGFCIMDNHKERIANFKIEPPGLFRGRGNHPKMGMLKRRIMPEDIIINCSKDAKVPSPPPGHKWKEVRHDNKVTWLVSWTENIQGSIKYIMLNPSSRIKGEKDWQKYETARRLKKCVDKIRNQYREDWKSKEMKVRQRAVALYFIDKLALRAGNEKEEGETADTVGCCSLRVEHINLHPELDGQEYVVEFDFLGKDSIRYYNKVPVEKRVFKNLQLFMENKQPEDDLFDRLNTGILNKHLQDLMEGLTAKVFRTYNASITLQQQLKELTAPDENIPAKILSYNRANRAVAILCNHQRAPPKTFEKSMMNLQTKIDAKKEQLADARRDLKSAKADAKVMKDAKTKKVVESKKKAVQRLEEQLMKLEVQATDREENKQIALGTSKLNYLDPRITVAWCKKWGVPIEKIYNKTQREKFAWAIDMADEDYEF
UniProt Q03468: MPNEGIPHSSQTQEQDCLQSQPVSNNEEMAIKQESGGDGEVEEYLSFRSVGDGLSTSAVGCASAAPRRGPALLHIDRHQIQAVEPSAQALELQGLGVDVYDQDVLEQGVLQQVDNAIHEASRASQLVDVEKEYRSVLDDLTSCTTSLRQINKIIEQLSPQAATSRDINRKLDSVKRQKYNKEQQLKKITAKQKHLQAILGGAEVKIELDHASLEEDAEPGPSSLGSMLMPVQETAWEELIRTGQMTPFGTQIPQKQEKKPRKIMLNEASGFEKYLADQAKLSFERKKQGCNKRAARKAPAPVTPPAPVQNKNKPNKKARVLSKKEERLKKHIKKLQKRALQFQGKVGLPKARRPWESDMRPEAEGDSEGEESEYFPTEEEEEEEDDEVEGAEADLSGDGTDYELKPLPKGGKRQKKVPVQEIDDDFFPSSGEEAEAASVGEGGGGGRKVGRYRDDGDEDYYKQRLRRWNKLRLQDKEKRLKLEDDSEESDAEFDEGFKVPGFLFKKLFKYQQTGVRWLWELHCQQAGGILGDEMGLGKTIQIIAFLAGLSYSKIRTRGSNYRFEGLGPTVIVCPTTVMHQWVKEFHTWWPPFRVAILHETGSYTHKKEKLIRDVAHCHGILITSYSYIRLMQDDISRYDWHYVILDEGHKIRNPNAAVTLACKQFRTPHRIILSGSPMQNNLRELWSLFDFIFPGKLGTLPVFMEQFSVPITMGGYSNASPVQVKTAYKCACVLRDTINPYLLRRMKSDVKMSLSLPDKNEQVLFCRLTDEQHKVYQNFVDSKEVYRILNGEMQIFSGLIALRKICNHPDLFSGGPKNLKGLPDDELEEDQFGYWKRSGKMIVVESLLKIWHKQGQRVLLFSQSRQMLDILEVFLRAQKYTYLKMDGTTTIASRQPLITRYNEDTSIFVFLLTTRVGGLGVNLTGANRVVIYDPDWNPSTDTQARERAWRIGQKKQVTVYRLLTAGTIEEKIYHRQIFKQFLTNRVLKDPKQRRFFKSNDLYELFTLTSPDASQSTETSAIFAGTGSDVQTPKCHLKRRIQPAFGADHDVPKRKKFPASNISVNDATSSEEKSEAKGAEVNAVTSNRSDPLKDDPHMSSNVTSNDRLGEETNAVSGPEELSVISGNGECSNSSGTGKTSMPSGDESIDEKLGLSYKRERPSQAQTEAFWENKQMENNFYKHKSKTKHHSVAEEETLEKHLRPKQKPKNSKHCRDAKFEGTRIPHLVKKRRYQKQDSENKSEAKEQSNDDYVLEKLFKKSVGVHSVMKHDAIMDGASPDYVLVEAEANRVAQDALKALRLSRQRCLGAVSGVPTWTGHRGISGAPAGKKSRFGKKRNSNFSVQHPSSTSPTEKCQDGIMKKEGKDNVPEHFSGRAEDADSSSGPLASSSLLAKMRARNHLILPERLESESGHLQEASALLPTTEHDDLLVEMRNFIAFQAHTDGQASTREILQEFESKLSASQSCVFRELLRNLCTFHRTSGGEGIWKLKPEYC

How the values were obtained:
Assay in all cases: co-IP; lysates (RIPA buffer) of CSIAN cells co-transfected with Flag-tagged CSB and a Myc-tagged protein, 24 hr post transfection; anti-c-myc agarose overnight; Western blot with anti-Flag
Myc-tagged DDX17 (human) = Myc-tagged DDX17 (human) (UniProt Q92841)
Myc-tagged DDX5 (human) = Myc-tagged DDX5 (human) (UniProt P17844)
Myc-tagged HDAC1 (human) = Myc-tagged HDAC1 (human) (UniProt Q13547)
Myc-tagged PRPF3 (human) = molecular target: T1, Myc-tagged PRPF3 (human) (UniProt O43395)
T1 sequence: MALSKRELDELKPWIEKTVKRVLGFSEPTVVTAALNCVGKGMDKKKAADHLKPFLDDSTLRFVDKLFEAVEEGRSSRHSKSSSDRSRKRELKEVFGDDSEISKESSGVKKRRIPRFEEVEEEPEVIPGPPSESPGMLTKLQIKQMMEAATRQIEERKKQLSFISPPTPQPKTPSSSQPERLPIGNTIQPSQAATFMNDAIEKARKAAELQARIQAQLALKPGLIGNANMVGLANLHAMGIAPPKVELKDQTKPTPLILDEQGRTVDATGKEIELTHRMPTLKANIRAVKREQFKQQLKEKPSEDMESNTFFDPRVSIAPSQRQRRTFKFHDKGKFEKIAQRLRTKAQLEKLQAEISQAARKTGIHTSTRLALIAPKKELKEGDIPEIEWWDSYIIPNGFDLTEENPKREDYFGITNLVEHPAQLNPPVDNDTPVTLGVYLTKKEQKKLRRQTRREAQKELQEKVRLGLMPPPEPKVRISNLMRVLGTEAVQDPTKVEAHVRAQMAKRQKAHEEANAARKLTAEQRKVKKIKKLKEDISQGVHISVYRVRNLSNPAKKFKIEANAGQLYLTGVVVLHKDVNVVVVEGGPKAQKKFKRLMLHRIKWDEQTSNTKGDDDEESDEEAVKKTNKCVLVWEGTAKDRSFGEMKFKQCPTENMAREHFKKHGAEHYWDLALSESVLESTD

Myc-tagged TOP1 (human) = Myc-tagged TOP1 (human) (UniProt P11387)
Myc-tagged DDX23 (human) = molecular target: T2, Myc-tagged DDX23 (human) (UniProt Q9BUQ8)
T2 sequence: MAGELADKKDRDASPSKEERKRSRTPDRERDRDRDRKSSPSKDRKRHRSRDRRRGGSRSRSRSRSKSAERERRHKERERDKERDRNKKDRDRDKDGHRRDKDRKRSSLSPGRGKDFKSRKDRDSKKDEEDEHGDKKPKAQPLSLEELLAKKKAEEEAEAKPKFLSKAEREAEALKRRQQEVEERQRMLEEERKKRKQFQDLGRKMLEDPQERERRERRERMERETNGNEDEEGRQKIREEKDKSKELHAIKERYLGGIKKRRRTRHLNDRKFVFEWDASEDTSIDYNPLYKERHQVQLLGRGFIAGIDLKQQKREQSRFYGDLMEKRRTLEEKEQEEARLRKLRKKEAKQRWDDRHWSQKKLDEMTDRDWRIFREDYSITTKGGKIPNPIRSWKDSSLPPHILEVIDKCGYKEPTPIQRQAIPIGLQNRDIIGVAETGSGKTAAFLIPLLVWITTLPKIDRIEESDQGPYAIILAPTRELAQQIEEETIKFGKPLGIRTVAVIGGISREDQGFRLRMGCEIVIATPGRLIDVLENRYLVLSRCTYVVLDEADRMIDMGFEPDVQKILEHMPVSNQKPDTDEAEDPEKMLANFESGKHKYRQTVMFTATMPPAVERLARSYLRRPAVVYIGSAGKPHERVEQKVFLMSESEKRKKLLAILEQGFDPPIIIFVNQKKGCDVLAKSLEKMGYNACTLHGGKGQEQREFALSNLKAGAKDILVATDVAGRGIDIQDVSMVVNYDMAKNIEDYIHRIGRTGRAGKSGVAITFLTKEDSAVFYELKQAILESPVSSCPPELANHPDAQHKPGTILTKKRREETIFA

Measured: binding

Flag-tagged CSB (from UniProt Q03468 1-1493)
binds: all assays above
